These are yes or no findings as the source states them, for the method shown. Binding seen in cells or lysates may run through a third protein. Some results given as binding are weak or reduced against the parent protein; the word gives no strength. Where a sequence is shown, tags or fusion partners need not be part of it.
T1: Flag-NPHP7 1-156 (human) (UniProt Q9BZE0)
T1 sequence: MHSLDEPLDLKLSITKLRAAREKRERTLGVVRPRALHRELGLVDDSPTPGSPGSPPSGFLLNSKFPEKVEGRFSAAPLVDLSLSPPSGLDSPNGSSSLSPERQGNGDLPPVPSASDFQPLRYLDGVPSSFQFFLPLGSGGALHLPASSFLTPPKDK

T2: Flag-tagged full-length NPHP7 (human) (UniProt Q9BZE0)
T2 sequence: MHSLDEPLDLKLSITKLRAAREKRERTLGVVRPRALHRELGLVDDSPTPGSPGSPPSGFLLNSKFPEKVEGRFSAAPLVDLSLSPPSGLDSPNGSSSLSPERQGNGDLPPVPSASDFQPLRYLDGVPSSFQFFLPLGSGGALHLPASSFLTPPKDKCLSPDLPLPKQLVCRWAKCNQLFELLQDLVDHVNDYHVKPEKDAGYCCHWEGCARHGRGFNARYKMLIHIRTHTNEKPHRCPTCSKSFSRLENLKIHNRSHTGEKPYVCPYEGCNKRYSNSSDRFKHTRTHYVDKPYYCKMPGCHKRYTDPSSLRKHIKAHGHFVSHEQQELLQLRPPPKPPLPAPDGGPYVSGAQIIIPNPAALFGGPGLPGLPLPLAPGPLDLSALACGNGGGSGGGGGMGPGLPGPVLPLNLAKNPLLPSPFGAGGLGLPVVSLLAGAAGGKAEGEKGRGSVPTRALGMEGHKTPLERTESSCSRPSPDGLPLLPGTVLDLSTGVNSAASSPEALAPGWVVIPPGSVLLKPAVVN

T3: BBS1 (tagged, precipitated in the test of BBS1-12 against NPHP7) (human) (UniProt Q8NFJ9)
T3 sequence: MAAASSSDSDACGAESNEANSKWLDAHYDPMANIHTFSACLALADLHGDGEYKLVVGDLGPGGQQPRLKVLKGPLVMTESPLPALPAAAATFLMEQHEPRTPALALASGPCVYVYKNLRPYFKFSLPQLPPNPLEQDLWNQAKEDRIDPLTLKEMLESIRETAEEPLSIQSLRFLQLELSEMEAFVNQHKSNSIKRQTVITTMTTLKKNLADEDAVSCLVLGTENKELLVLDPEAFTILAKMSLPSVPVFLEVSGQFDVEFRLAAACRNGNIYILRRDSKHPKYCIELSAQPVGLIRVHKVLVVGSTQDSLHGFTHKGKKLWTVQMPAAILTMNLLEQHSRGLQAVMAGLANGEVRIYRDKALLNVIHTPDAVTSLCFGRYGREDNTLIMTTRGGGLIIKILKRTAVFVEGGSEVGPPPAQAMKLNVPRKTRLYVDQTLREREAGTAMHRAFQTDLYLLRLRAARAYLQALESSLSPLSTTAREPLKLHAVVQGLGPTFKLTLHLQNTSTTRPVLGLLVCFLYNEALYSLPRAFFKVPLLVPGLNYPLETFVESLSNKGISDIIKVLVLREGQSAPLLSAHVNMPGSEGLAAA


Experiments:
Flag-NPHP7 1-156 (human) = biological target: T1, Flag-NPHP7 1-156 (human); test: co-IP; Flag-tagged NPHP7 (full length or truncations) co-expressed with V5-BBS1 in HEK 293T; lysis in 20 mM Tris-HCl pH 7.5, 1% Triton-X 100, 50 mM NaCl; precipitation with anti-Flag-M2 agarose beads for 3 h; western blot with anti-V5
[1] = biological target: T2, Flag-tagged full-length NPHP7 (human); test: as above
[2] = biological target: T3, BBS1 (tagged, precipitated in the test of BBS1-12 against NPHP7) (human); test: co-IP; tagged human BBS family members (BBS1-12) and NPHP7 overexpressed in HEK 293T cells; the BBS protein precipitated, NPHP7 detected; no figure given for this test

| binding (Flag-NPHP7 1-156 (human)) | binding [1] | binding [2] | Binder |
| --- | --- | --- | --- |
| binds | binds |  | V5-tagged full-length BBS1 (protein, UniProt Q8NFJ9 1-593) MAAASSSDSDACGAESNEANSKWLDAHYDPMANIHTFSACLALADLHGDGEYKLVVGDLGPGGQQPRLKVLKGPLVMTESPLPALPAAAATFLMEQHEPRTPALALASGPCVYVYKNLRPYFKFSLPQLPPNPLEQDLWNQAKEDRIDPLTLKEMLESIRETAEEPLSIQSLRFLQLELSEMEAFVNQHKSNSIKRQTVITTMTTLKKNLADEDAVSCLVLGTENKELLVLDPEAFTILAKMSLPSVPVFLEVSGQFDVEFRLAAACRNGNIYILRRDSKHPKYCIELSAQPVGLIRVHKVLVVGSTQDSLHGFTHKGKKLWTVQMPAAILTMNLLEQHSRGLQAVMAGLANGEVRIYRDKALLNVIHTPDAVTSLCFGRYGREDNTLIMTTRGGGLIIKILKRTAVFVEGGSEVGPPPAQAMKLNVPRKTRLYVDQTLREREAGTAMHRAFQTDLYLLRLRAARAYLQALESSLSPLSTTAREPLKLHAVVQGLGPTFKLTLHLQNTSTTRPVLGLLVCFLYNEALYSLPRAFFKVPLLVPGLNYPLETFVESLSNKGISDIIKVLVLREGQSAPLLSAHVNMPGSEGLAAA |
|  |  | binds | NPHP7 (tagged, co-precipitated in the test of BBS1-12 against NPHP7) (protein, UniProt Q9BZE0 1-524) MHSLDEPLDLKLSITKLRAAREKRERTLGVVRPRALHRELGLVDDSPTPGSPGSPPSGFLLNSKFPEKVEGRFSAAPLVDLSLSPPSGLDSPNGSSSLSPERQGNGDLPPVPSASDFQPLRYLDGVPSSFQFFLPLGSGGALHLPASSFLTPPKDKCLSPDLPLPKQLVCRWAKCNQLFELLQDLVDHVNDYHVKPEKDAGYCCHWEGCARHGRGFNARYKMLIHIRTHTNEKPHRCPTCSKSFSRLENLKIHNRSHTGEKPYVCPYEGCNKRYSNSSDRFKHTRTHYVDKPYYCKMPGCHKRYTDPSSLRKHIKAHGHFVSHEQQELLQLRPPPKPPLPAPDGGPYVSGAQIIIPNPAALFGGPGLPGLPLPLAPGPLDLSALACGNGGGSGGGGGMGPGLPGPVLPLNLAKNPLLPSPFGAGGLGLPVVSLLAGAAGGKAEGEKGRGSVPTRALGMEGHKTPLERTESSCSRPSPDGLPLLPGTVLDLSTGVNSAASSPEALAPGWVVIPPGSVLLKPAVVN |

— PMC3771994
